{
  "source": "patent US20160067246A1",
  "about": "“USE OF PHOSPHODIESTERASE 5A INHIBITORS FOR THE TREATMENT OF MUSCULAR DYSTROPHY” (CEDARS-SINAI MEDICAL CENTER, priority 2013, published 2016)",
  "key": {"mdx mice": {"test_system": "mdx mice", "settings": "cited from earlier work"}, "[1]": {"test_system": "patients with Becker muscular dystrophy (BMD)", "experiment": "Functional sympatholysis: LBNP-induced decrease in forearm muscle oxygenation (NIR spectroscopy) at rest vs handgrip, tadalafil acute crossover trial", "type": "in vivo, human", "experimental": "Forearm muscle oxygenation was measured with near-infrared (NIR) spectroscopy, which is based on the principle that laser light with wavelengths in the 700-900 nm range easily penetrates skeletal muscle, and is absorbed by the iron-porphyrin moieties in hemoglobin and myoglobin. Changes in NIR light absorption are proportional to changes in the relative concentrations of oxygenated hemoglobin and myoglobin (HbO2 and MbO2). Because of their nearly identical absorption spectra, individual contributions of HbO2 and MbO2 cannot be determined. The NIR signals reflect changes in oxygenation occurring mainly in the microvasculature, because vessels greater than one millimeter in diameter are maximal absorbers of photons due to the high extinction coefficient of blood. Thus, NIR spectroscopy provides continuous measurement of the adequacy of tissue oxygen delivery relative to its use. […] Changes in forearm tissue oxygenation were expressed as a percentage of […] exercise was performed using a dynamometer ([…] Dynamometer modified by Stoelting, Wood Dale, Ill.). […] The pressure in the chamber was measured by a Statham transducer (Gould Inc., Oxnard, Calif.). […] Reflex vasoconstriction was measured as the LBNP-induced decrease in forearm muscle oxygenation by NIR spectroscopy; this approach provides a valid measure of reflex neurogenic vasoconstriction under these conditions (13). The BP, heart rate, handgrip force, and NIR signals were recorded in response to two minutes of LBNP applied at rest and during the third to fifth minutes of the seven-minute exercise period. […] Patients were queried about potential tadalafil-specific side-effects both for safety monitoring and to assess whether blinding was maintained. tadalafil blood levels were measured using high performance liquid chromatography/tandem mass spectrometry (NMS Labs Willow Grove, Pa.). […] Exercise-induced attenuation of reflex vasoconstriction (functional sympatholysis) was assessed by comparing the LBNP-induced AHbO2+MbO2 (% TLS) at rest vs. the LBNP-induced decrease in AHbO2+MbO2 during handgrip. […]"}, "[2]": {"test_system": "boys with Duchenne muscular dystrophy (DMD)", "experiment": "Exercise-induced hyperemia: brachial artery blood flow by Doppler ultrasound and hemodynamics, rest and post handgrip", "type": "in vivo, human", "settings": "0.5 and 1.0 mg/kg oral", "experimental": "Subjects were studied in the supine position. Heart rate was measured continuously by electrocardiography, and blood pressure measured by automated oscillometric sphygomanometry using a child's cuff ([…] Monitor 300 Series). Brachial artery mean blood velocity (MBV) was measured from the exercising arm using pulsed-Doppler ultrasonography (Siemens iE33). Data were acquired continuously with a 9-MHz probe with a 60° angle of insonation, placed on the skin surface distal to the axilla. The ultrasound gate was optimized to ensure complete insonation of the entire vessel cross-section with constant intensity. The Doppler audio signal was converted to a real-time flow velocity signal using a validated Doppler audio converter,^8B and recorded using a PowerLab data acquisition system (ADInstruments, CO). Brachial artery diameter was measured by B-mode imaging in triplicate at rest. […] Brachial artery blood flow was calculated as MBV (cm/s)·πr^2·60, where r is radius of the brachial artery. […] Vascular conductance was calculated as forearm blood flow divided by mean arterial pressure. […] Exercise-induced attenuation of reflex vasoconstriction (functional sympatholysis) was assessed by comparing the LBNP-induced AHbO2+MbO2 (% TLS) at rest versus the LBNP-induced decrease in ΔHbO2+MbO2 during handgrip. Group differences in ΔHbO2+MbO2 were assessed using a Student's t test. […]"}},
  "note": "Entries after “also recorded” stand apart in the source; their conditions may differ. At least one structure is not confirmed: it was looked up by name or label, or the drawing left a doubt.",
  "data": [
    {"smiles": "CN1CC(=O)N2[C@H](c3ccc4c(c3)OCO4)c3[nH]c4ccccc4c3C[C@@H]2C1=O", "note": "[tadalafil]", "values": [
      {"measurement": "dystrophic muscle histology", "setting": "mdx mice; prenatal treatment (Asai et al.)", "result": "dystrophic muscle histology can be improved"},
      {"measurement": "spasm of intramuscular arterioles after brief eccentric exercise", "setting": "mdx mice; single dose (Kobayashi et al.)", "result": "dramatically eliminates spasm of intramuscular arterioles"},
      {"measurement": "patients with BMD showing sympatholysis after tadalafil", "setting": "[1]; 20 mg tadalafil, 10 patients", "result": "Nine of ten; also recorded: nine of 10"},
      {"measurement": "BMD patients lacking sympatholysis on placebo in whom blood flow regulation was fully restored", "setting": "[1]; single dose 20 mg tadalafil", "result": "eight of nine"},
      {"measurement": "degree of functional sympatholysis compared with healthy controls", "setting": "[1]; tadalafil-treated BMD patients, P>0.1", "result": "indistinguishable from normal"},
      {"measurement": "effect on post-exercise / exercise-induced hyperemia in DMD (in words)", "setting": "[2]", "result": "restored post-exercise hyperemia and vascular conductance; also recorded: restored exercise-induced hyperemia in a dose-dependent manner"}
    ]}
  ]
}
